# Measurements as given in the supplement of paper PMC10849652.
# By UniProt entry, the sequences of proteins in these tests, tags left out. Where a name states a change or a piece, a line headed by the entry shows the natural chain unless it says otherwise.
# UniProt Q9BRP8: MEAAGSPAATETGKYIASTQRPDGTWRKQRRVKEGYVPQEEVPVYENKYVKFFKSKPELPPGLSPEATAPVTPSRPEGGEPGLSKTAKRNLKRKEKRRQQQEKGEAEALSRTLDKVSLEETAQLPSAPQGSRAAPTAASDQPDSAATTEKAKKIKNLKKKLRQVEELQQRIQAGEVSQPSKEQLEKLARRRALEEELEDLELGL
# UniProt P25787: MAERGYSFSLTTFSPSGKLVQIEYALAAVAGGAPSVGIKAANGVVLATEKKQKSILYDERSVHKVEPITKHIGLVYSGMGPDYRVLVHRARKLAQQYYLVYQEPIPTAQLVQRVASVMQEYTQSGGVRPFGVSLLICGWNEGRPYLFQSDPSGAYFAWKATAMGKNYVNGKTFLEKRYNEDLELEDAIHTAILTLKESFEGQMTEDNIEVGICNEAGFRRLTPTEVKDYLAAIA
# UniProt Q06323: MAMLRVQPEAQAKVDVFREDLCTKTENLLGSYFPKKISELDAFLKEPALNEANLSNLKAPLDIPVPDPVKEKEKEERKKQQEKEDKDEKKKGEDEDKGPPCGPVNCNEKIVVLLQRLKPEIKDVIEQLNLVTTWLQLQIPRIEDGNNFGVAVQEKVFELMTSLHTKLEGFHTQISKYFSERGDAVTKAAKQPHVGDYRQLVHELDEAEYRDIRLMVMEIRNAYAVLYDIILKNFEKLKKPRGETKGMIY
# UniProt Q9H974: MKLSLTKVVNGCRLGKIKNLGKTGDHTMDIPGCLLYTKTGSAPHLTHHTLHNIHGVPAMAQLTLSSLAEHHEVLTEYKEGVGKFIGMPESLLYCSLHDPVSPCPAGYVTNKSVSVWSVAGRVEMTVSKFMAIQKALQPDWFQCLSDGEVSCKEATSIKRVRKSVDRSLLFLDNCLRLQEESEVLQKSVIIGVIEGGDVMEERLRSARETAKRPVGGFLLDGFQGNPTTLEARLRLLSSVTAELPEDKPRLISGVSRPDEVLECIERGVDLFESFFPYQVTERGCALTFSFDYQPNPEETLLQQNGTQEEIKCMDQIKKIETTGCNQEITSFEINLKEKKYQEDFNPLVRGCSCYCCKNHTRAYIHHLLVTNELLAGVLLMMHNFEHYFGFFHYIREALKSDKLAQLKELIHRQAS
# UniProt O00232: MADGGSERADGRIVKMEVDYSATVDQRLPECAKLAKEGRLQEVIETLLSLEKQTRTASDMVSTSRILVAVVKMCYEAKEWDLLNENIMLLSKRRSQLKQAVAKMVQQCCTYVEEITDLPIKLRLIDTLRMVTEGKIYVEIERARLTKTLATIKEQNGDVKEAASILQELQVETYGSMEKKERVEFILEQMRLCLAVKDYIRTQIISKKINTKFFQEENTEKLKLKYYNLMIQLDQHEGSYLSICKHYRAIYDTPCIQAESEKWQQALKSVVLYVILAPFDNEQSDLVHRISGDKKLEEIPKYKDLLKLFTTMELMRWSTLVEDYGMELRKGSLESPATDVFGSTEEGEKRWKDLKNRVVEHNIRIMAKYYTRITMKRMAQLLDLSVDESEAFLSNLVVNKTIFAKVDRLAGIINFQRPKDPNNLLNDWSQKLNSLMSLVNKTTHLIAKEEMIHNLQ
# UniProt Q9H0R6: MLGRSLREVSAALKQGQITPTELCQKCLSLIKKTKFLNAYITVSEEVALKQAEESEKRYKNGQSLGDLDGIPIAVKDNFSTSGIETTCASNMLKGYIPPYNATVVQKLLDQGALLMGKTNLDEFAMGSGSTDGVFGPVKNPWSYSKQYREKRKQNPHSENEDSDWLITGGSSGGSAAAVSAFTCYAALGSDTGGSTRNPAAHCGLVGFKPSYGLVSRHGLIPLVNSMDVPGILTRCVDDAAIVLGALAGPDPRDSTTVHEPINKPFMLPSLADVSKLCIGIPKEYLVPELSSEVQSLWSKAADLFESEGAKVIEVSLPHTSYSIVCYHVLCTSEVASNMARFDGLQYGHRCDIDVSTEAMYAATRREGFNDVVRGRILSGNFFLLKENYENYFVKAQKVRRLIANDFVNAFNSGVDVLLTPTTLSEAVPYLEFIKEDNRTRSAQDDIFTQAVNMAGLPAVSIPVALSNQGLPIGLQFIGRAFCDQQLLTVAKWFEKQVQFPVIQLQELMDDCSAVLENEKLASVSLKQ
# UniProt Q9UHX1: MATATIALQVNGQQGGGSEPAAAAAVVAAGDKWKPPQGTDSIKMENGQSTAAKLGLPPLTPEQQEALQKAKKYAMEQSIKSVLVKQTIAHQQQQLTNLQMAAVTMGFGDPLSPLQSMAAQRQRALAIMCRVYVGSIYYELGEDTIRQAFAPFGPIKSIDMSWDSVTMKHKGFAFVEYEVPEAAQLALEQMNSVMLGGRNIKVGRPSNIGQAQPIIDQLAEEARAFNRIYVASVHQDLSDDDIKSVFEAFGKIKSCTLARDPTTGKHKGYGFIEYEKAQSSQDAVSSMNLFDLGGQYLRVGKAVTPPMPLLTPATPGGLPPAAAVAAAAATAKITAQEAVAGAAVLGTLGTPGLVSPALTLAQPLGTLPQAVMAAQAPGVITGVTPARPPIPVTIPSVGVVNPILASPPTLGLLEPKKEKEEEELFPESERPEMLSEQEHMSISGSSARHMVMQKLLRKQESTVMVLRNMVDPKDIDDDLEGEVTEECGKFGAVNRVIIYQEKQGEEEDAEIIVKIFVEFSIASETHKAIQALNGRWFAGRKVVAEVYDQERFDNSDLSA
# UniProt Q8N8N7: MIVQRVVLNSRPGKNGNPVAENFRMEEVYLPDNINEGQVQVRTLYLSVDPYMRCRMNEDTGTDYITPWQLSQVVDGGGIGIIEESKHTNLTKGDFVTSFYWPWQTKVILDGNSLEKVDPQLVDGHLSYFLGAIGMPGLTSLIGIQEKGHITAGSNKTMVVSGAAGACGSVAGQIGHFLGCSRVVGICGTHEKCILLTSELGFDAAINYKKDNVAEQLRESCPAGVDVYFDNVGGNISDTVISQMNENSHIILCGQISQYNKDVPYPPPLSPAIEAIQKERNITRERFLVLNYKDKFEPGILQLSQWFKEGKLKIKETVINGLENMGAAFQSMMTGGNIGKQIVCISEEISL
# UniProt Q6GMV3: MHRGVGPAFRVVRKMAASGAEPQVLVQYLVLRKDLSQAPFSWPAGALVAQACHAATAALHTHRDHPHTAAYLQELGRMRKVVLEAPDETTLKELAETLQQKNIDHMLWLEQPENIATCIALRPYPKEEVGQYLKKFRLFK
# UniProt Q05397, whole entry, looked up: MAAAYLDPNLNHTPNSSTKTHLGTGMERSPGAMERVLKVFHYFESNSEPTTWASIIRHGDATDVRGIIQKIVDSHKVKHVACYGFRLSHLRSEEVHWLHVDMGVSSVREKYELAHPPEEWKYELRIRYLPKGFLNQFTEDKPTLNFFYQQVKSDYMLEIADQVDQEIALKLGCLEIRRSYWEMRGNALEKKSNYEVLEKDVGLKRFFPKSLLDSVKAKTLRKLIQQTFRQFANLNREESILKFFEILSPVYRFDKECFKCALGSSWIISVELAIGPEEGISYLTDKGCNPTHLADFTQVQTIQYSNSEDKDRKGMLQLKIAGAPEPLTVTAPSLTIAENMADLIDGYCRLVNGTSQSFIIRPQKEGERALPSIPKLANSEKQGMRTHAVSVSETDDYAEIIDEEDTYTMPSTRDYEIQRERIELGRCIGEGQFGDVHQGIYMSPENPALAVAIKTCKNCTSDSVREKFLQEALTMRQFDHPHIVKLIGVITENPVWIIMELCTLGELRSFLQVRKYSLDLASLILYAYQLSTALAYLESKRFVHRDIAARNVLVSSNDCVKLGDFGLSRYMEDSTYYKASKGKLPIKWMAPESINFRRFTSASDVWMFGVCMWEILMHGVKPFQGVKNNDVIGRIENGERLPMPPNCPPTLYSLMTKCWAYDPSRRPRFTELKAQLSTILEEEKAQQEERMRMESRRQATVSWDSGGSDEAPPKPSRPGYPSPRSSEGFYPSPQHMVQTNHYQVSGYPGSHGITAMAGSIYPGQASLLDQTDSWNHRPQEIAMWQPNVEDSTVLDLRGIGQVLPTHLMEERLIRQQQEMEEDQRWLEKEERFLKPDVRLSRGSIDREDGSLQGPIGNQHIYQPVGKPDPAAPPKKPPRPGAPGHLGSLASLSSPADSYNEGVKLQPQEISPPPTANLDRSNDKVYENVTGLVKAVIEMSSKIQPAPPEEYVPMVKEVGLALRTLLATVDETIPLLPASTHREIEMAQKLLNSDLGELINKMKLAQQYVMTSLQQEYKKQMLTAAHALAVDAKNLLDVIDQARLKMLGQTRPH
# UniProt P35998: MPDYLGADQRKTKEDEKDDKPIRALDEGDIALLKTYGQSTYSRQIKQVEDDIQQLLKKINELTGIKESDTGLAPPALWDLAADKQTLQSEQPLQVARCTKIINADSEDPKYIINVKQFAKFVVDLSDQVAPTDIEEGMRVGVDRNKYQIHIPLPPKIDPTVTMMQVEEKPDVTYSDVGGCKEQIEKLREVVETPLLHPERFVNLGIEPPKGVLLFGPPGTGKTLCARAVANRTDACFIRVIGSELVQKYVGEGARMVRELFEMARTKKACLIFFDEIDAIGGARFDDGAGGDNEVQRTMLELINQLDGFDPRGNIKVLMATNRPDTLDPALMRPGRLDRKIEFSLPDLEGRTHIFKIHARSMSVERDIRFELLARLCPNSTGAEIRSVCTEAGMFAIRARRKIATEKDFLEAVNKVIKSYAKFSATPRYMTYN
# UniProt Q8WUK0: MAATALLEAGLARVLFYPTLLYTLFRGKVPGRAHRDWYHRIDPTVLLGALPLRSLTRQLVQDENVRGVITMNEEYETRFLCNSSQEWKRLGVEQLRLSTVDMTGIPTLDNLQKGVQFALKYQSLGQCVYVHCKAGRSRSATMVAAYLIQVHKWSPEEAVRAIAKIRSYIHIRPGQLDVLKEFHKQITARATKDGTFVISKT
# UniProt O00231, whole entry, looked up: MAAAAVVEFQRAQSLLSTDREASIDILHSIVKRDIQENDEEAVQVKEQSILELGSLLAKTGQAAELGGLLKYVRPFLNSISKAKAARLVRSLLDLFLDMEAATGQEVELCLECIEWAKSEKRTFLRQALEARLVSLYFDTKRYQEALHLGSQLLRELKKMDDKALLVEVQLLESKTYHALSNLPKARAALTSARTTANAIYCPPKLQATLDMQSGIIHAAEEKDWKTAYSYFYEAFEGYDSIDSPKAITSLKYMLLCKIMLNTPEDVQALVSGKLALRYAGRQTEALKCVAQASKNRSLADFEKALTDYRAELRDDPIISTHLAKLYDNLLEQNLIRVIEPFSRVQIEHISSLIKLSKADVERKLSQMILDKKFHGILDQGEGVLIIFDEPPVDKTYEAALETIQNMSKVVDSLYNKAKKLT
# UniProt Q9NRG1: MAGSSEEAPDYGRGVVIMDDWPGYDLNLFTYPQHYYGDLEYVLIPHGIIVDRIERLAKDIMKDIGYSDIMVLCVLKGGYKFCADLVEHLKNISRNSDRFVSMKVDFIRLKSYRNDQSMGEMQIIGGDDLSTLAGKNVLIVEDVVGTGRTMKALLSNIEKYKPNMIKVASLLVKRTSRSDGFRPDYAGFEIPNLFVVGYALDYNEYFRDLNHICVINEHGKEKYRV
# UniProt O43242, whole entry, looked up: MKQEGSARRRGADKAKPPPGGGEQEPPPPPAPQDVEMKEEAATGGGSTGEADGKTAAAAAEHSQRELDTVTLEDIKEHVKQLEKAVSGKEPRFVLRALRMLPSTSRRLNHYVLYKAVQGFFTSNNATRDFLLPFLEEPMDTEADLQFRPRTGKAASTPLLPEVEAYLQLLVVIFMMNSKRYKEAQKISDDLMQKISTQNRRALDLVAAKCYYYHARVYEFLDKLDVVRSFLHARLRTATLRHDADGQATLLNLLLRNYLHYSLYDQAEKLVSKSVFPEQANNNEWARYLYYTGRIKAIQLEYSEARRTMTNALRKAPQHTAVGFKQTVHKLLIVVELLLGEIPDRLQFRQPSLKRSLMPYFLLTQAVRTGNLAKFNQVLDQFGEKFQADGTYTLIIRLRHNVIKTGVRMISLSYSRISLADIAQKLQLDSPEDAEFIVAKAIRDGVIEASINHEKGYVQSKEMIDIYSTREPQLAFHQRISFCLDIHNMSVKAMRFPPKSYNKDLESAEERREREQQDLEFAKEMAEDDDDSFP
# The list shows a part of the results.
# Experiments:
# Test in all cases: log2 fold change, soluble protein after heating vs DMSO (PISA); higher = thermal stabilisation; K562 cells, 10 uM, 30 min; active = over 0.2 and 3.5 SD of the protein, either way, in both replicates (recomputed)
# [1] = compound: COC1=CC=C(C=C1)CN2C=CC3=C2C=C(C=C3)C(=O)NO
# How it was run: (§1)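 K562 cells at 2×10^6 cells/mL were exposed to 10 μM compound for 30 min, then aliquots were heated for 3 min across 48°C-58°C, pooled, and extracted in PBS containing 0.5% NP-40 at 4°C. The supernatant after 21,000xg for 90 min was taken as soluble protein and measured by TMTpro 16plex LC-MS/MS with channel sums equalised. Thermal stability is reported relative to control samples, with values from duplicates. Fold changes are given on a log2 scale.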
# filanesib = compound: CON(C)C(=O)N1N=C(c2cc(F)ccc2F)S[C@@]1(CCCN)c1ccccc1 [filanesib]
# How it was run: as §1
# zotarolimus = compound: CO[C@H]1C[C@@H]2CC[C@@H](C)[C@@](O)(O2)C(=O)C(=O)N2CCCC[C@H]2C(=O)O[C@H]([C@H](C)C[C@@H]2CC[C@H](n3cnnn3)[C@H](OC)C2)CC(=O)[C@H](C)/C=C(\C)[C@@H](O)[C@@H](OC)C(=O)[C@H](C)C[C@H](C)/C=C/C=C/C=C/1C [zotarolimus]
# How it was run: as §1
# idasanutlin = compound: COc1cc(C(=O)O)ccc1NC(=O)[C@@H]1N[C@@H](CC(C)(C)C)[C@](C#N)(c2ccc(Cl)cc2F)[C@H]1c1cccc(Cl)c1F [idasanutlin]
# How it was run: as §1
# alisertib = compound: COc1cc(Nc2ncc3c(n2)-c2ccc(Cl)cc2C(c2c(F)cccc2OC)=NC3)ccc1C(=O)O [alisertib]
# How it was run: as §1
# [2] = compound: COc1cc2nc(-c3cc(F)ccc3O)nc(N[C@@H]3CNC[C@H]3C(C)(C)O)c2cc1OC
# How it was run: as §1
# gefitinib = compound: COc1cc2ncnc(Nc3ccc(F)c(Cl)c3)c2cc1OCCCN1CCOCC1 [gefitinib]
# How it was run: as §1
# [3] = compound: COc1cccc2cc(-c3nc([C@H]4CC[C@H](C(=O)O)CC4)n4ncnc(N)c34)[nH]c12
# How it was run: as §1
# lapatinib = compound: CS(=O)(=O)CCNCc1ccc(-c2ccc3ncnc(Nc4ccc(OCc5cccc(F)c5)c(Cl)c4)c3c2)o1 [lapatinib]
# How it was run: as §1
# pictilisib = compound: CS(=O)(=O)N1CCN(Cc2cc3nc(-c4cccc5[nH]ncc45)nc(N4CCOCC4)c3s2)CC1 [pictilisib]
# How it was run: as §1
# [4] = compound: CS(=O)(=O)c1ccc(-c2cnc(N)c(C(=O)Nc3ccccc3)n2)cc1
# How it was run: as §1
# crizotinib = compound: C[C@@H](Oc1cc(-c2cnn(C3CCNCC3)c2)cnc1N)c1c(Cl)ccc(F)c1Cl [crizotinib]
# How it was run: as §1
# [5] = compound: C[C@@H]1COCCN1C2=NC(=NC(=C2)C3(CC3)S(=O)(=O)C)C4=C5C=CNC5=CC=C4
# How it was run: as §1
# [6] = compound: C[C@H](C1=CC=C(C=C1)C(=O)NC2=C3C=CNC3=NC=C2)N
# How it was run: as §1
# duvelisib = compound: C[C@H](Nc1ncnc2nc[nH]c12)c1cc2cccc(Cl)c2c(=O)n1-c1ccccc1 [duvelisib]
# How it was run: as §1
# gandotinib = compound: Cc1cc(Nc2cc(CN3CCOCC3)c3nc(C)c(Cc4ccc(Cl)cc4F)n3n2)n[nH]1 [gandotinib]
# How it was run: as §1
# tozasertib = compound: Cc1cc(Nc2cc(N3CCN(C)CC3)nc(Sc3ccc(NC(=O)C4CC4)cc3)n2)n[nH]1 [tozasertib]
# How it was run: as §1
# [7] = compound: Cc1cc(SCc2sc(-c3ccc(C(F)(F)F)cc3)nc2C)ccc1OCC(=O)O
# How it was run: as §1
# doramapimod = compound: Cc1ccc(-n2nc(C(C)(C)C)cc2NC(=O)Nc2ccc(OCCN3CCOCC3)c3ccccc23)cc1 [doramapimod]
# How it was run: as §1
# ispinesib = compound: Cc1ccc(C(=O)N(CCCN)[C@@H](c2nc3cc(Cl)ccc3c(=O)n2Cc2ccccc2)C(C)C)cc1 [ispinesib]
# How it was run: as §1
Target,log2 fold change [1],log2 fold change (filanesib),log2 fold change (zotarolimus),log2 fold change (idasanutlin),log2 fold change (alisertib),log2 fold change [2],log2 fold change (gefitinib),log2 fold change [3],log2 fold change (lapatinib),log2 fold change (pictilisib),log2 fold change [4],log2 fold change (crizotinib),log2 fold change [5],log2 fold change [6],log2 fold change (duvelisib),log2 fold change (gandotinib),log2 fold change (tozasertib),log2 fold change [7],log2 fold change (doramapimod),log2 fold change (ispinesib)
PYM1 (UniProt Q9BRP8),inactive: -0.038,inactive: 0.111,inactive: 0.008,inactive: 0.01,inactive: -0.043,inactive: 0,inactive: -0.054,inactive: -0.028,inactive: -0.017,inactive: -0.044,inactive: -0.054,inactive: 0.017,inactive: -0.195,inactive: 0.193,inactive: -0.034,inactive: 0.172,inactive: 0.018,inactive: 0.021,inactive: 0.037,inactive: -0.078
PSMA2 (UniProt P25787),inactive: 0.028,inactive: 0,inactive: 0.042,inactive: 0.02,inactive: -0.064,inactive: -0.009,inactive: -0.029,inactive: -0.03,inactive: 0.033,inactive: 0.021,inactive: -0.03,inactive: 0.096,inactive: -0.009,inactive: 0.01,inactive: -0.051,inactive: 0.048,inactive: 0.023,inactive: -0.006,inactive: -0.003,inactive: 0.069
PSME1 (UniProt Q06323),inactive: -0.026,inactive: -0.092,inactive: 0.021,inactive: -0.014,inactive: -0.049,inactive: -0.014,inactive: 0.006,inactive: 0.009,inactive: -0.078,inactive: -0.011,inactive: -0.007,inactive: -0.016,inactive: 0.103,inactive: -0.085,inactive: 0.029,inactive: -0.016,inactive: 0.03,inactive: 0.004,inactive: 0.007,inactive: 0.018
QTRT2 isoform 4 (UniProt Q9H974),inactive: -0.052,inactive: -0.034,inactive: -0.029,inactive: -0.011,inactive: 0.031,inactive: 0.005,inactive: -0.003,inactive: 0.09,inactive: 0.032,inactive: 0,inactive: 0.043,inactive: -0.011,inactive: 0.045,inactive: 0.003,inactive: 0.058,inactive: 0.035,inactive: -0.043,inactive: -0.014,inactive: 0.01,inactive: 0.043
PSMD12 (UniProt O00232),inactive: -0.015,inactive: 0.047,inactive: 0.013,inactive: -0.025,inactive: -0.096,inactive: -0.07,inactive: -0.018,inactive: -0.067,inactive: 0.096,inactive: -0.059,inactive: 0.053,inactive: 0.009,inactive: -0.03,inactive: 0.073,,inactive: 0.029,,inactive: 0.057,inactive: 0.019,inactive: 0.003
QRSL1 (UniProt Q9H0R6),inactive: -0.01,inactive: -0.087,inactive: -0.028,inactive: -0.128,inactive: 0.022,inactive: -0.005,inactive: -0.007,inactive: 0.017,inactive: 0.003,inactive: 0.06,inactive: 0.046,inactive: -0.04,active: 0.212,inactive: -0.023,,inactive: 0.082,,inactive: 0.024,inactive: -0.015,inactive: -0.049
PUF60 (UniProt Q9UHX1),inactive: 0.007,inactive: 0.087,inactive: 0.026,inactive: 0.022,inactive: -0.05,inactive: -0.028,inactive: 0.014,inactive: 0.008,inactive: 0.063,inactive: 0,inactive: -0.012,inactive: 0.031,inactive: 0.025,inactive: -0.199,,inactive: -0.09,,inactive: 0.056,inactive: -0.041,inactive: 0.039
PTGR2 (UniProt Q8N8N7),inactive: -0.13,inactive: -0.155,inactive: 0.195,inactive: 0.122,inactive: -0.03,inactive: -0.04,inactive: 0.035,inactive: 0,inactive: 0.125,inactive: 0.313,inactive: 0.097,inactive: -0.075,inactive: 0.045,inactive: 0.112,,inactive: 0.192,,inactive: -0.185,inactive: 0.223,inactive: 0.013
PTRHD1 (UniProt Q6GMV3),inactive: -0.051,inactive: 0.065,inactive: -0.008,inactive: 0.042,inactive: -0.103,inactive: -0.025,inactive: 0.085,inactive: 0.068,inactive: -0.061,inactive: 0.02,inactive: 0.003,inactive: 0.006,inactive: 0.184,inactive: -0.097,,inactive: 0.08,,inactive: 0.022,inactive: -0.036,inactive: 0.225
PTK2 (UniProt Q05397),inactive: -0.094,inactive: -0.05,inactive: 0.02,inactive: -0.083,inactive: -0.009,inactive: 0.052,inactive: -0.021,inactive: 0.041,inactive: -0.009,inactive: -0.01,inactive: 0.013,inactive: 0.119,inactive: 0.076,inactive: -0.037,inactive: 0.041,inactive: 0.074,inactive: -0.018,inactive: -0.019,,inactive: 0.013
PTDSS1 (UniProt P48651),inactive: -0.015,inactive: 0.075,inactive: 0.053,inactive: 0.124,inactive: -0.098,inactive: -0.071,inactive: 0.041,inactive: -0.012,inactive: 0.04,inactive: -0.098,inactive: -0.029,inactive: -0.141,inactive: -0.05,inactive: 0.209,,inactive: -0.039,,inactive: 0.105,inactive: 0.151,inactive: -0.326
PSMC2 (UniProt P35998),inactive: -0.076,inactive: 0.049,inactive: -0.03,inactive: 0.033,inactive: -0.05,inactive: -0.034,inactive: -0.051,inactive: -0.05,inactive: 0.059,inactive: -0.067,inactive: 0.011,inactive: 0.003,inactive: -0.087,inactive: 0.079,,inactive: 0.027,,inactive: 0.014,inactive: 0.005,inactive: 0.016
PTPMT1 (UniProt Q8WUK0),inactive: -0.084,inactive: -0.26,inactive: -0.027,inactive: -0.002,inactive: 0.006,active: -0.327,inactive: -0.021,inactive: 0.034,inactive: -0.064,inactive: 0.02,inactive: 0.086,active: -0.546,inactive: 0.039,inactive: -0.026,,inactive: -0.125,,inactive: 0.109,inactive: -0.036,active: -0.429
PSMD11 (UniProt O00231),inactive: 0.018,inactive: -0.011,inactive: 0.028,inactive: 0.004,inactive: -0.058,inactive: -0.052,inactive: -0.043,inactive: -0.071,inactive: 0.086,inactive: 0.003,inactive: 0.036,inactive: -0.024,inactive: -0.035,inactive: 0.074,,inactive: 0.046,,inactive: 0.07,inactive: 0.013,inactive: 0.045
PRTFDC1 (UniProt Q9NRG1),inactive: 0.049,inactive: -0.069,inactive: 0.001,inactive: -0.027,inactive: -0.148,inactive: 0.015,inactive: 0.017,inactive: 0.034,inactive: 0.068,inactive: -0.002,inactive: -0.005,inactive: 0.018,inactive: -0.005,inactive: -0.093,inactive: -0.007,inactive: 0.014,inactive: -0.039,inactive: -0.007,inactive: -0.096,inactive: 0.011
PSMD3 (UniProt O43242),inactive: -0.058,inactive: 0.061,inactive: 0.021,inactive: 0.003,inactive: -0.075,inactive: -0.089,inactive: -0.035,inactive: -0.011,inactive: 0.061,inactive: -0.023,inactive: 0.058,inactive: 0.003,inactive: -0.003,inactive: 0.094,,inactive: 0.028,,inactive: 0.047,inactive: 0.047,inactive: 0.013

# Part of the list above, tab-delimited.
Target	log2 fold change [1]	log2 fold change (filanesib)	log2 fold change (zotarolimus)	log2 fold change (idasanutlin)	log2 fold change (alisertib)	log2 fold change [2]	log2 fold change (gefitinib)	log2 fold change [3]	log2 fold change (lapatinib)	log2 fold change (pictilisib)	log2 fold change [4]	log2 fold change (crizotinib)	log2 fold change [5]	log2 fold change [6]	log2 fold change (duvelisib)	log2 fold change (gandotinib)	log2 fold change (tozasertib)	log2 fold change [7]	log2 fold change (doramapimod)	log2 fold change (ispinesib)
PUF60 (UniProt Q9UHX1)	inactive: 0.007	inactive: 0.087	inactive: 0.026	inactive: 0.022	inactive: -0.05	inactive: -0.028	inactive: 0.014	inactive: 0.008	inactive: 0.063	inactive: 0	inactive: -0.012	inactive: 0.031	inactive: 0.025	inactive: -0.199		inactive: -0.09		inactive: 0.056	inactive: -0.041	inactive: 0.039
PTGR2 (UniProt Q8N8N7)	inactive: -0.13	inactive: -0.155	inactive: 0.195	inactive: 0.122	inactive: -0.03	inactive: -0.04	inactive: 0.035	inactive: 0	inactive: 0.125	inactive: 0.313	inactive: 0.097	inactive: -0.075	inactive: 0.045	inactive: 0.112		inactive: 0.192		inactive: -0.185	inactive: 0.223	inactive: 0.013
PTRHD1 (UniProt Q6GMV3)	inactive: -0.051	inactive: 0.065	inactive: -0.008	inactive: 0.042	inactive: -0.103	inactive: -0.025	inactive: 0.085	inactive: 0.068	inactive: -0.061	inactive: 0.02	inactive: 0.003	inactive: 0.006	inactive: 0.184	inactive: -0.097		inactive: 0.08		inactive: 0.022	inactive: -0.036	inactive: 0.225
